The results in this text go back to doi:10.1101/2022.09.27.509696.

By UniProt entry, the sequences of proteins in these tests, tags left out. Where a name states a change or a piece, a line headed by the entry shows the natural chain unless it says otherwise. Chains listed by the source or under a name are the forms on record and can include a tag or linker. Residues count along the entry.
UniProt Q9NYM4, residues 17-423: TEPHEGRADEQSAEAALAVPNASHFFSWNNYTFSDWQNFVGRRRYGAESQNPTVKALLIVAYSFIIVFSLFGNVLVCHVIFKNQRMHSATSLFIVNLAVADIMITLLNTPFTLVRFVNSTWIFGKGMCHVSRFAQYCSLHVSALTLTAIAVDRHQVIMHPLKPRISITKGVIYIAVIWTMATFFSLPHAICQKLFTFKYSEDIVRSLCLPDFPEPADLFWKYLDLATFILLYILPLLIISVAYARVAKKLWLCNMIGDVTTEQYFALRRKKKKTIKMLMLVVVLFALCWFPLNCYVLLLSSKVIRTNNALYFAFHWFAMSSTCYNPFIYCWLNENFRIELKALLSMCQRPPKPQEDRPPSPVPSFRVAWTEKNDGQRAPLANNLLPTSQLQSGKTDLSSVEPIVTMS
UniProt Q92847: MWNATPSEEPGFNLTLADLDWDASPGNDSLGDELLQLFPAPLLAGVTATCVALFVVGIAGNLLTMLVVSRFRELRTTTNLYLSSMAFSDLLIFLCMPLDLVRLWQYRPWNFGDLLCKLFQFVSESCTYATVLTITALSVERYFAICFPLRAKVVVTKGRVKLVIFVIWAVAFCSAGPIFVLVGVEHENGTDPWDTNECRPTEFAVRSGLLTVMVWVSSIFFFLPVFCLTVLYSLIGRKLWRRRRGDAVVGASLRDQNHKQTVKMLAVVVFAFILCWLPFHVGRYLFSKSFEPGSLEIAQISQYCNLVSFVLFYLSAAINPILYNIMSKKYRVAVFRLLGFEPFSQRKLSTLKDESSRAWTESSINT
SmBiT-FAM237A (A0A1B0GTK4, residues 34-113): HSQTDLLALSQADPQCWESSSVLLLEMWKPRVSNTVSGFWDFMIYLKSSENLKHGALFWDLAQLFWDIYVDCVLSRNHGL
[G79A]FAM237A (A0A1B0GTK4, form named): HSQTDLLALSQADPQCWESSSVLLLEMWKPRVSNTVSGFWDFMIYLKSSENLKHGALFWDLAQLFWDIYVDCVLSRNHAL
[H78A]FAM237A (A0A1B0GTK4, form named): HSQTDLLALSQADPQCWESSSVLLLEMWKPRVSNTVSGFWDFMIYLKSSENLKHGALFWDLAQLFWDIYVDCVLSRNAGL
[L80A]FAM237A (A0A1B0GTK4, form named): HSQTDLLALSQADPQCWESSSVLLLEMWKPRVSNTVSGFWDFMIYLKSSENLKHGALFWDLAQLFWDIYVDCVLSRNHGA
UniProt P06307: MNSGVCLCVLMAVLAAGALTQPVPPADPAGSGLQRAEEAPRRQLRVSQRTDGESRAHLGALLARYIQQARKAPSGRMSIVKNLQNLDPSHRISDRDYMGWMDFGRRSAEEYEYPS

Holding throughout (test): split reporter
Experiment [1] concerns the target GPR83-LgBiT (C-terminally LgBiT-fused full-length human GPR83) (human) (UniProt Q9NYM4).
Experiment [2] deals with T1, sLgBiT-RXFP3 (sLgBiT-fused relaxin family peptide receptor 3) (UniProt Q9NSD7).
T1 sequence: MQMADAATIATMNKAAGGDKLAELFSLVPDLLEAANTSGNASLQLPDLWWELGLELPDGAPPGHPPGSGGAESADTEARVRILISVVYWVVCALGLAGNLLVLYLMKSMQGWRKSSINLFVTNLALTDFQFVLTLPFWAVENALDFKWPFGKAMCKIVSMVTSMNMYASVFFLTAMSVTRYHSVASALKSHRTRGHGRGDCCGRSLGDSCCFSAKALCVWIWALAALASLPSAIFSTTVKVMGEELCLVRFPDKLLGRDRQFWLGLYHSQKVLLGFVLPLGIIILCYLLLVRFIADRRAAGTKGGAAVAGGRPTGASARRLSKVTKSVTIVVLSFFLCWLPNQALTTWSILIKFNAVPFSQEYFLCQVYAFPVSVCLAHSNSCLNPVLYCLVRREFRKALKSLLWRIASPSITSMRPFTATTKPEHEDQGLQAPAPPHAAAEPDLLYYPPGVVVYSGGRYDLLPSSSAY

In experiment [3] the target is sLgBiT-GPR83 (N-terminally sLgBiT-fused mature human GPR83) (human) (UniProt Q9NYM4).
Experiment [4] deals with sLgBiT-GHSR1a (sLgBiT-fused growth hormone secretagogue receptor type 1a) (UniProt Q92847).

Results are given in words; binding and its absence hold for the method and conditions named. In cells and extracts the contact can be indirect. Some binding calls cover weakened binding; strength is not graded here. For some assays here: Where a sequence is shown, tags or fusion partners need not be part of it.

As to “SmBiT-ARRB2 (N-terminally SmBiT-fused human β-arrestin 2) (from UniProt P32121-1 1-409)”, the binding result in experiment [1] was “binds”.

Consider “SmBiT-FAM237A (from UniProt A0A1B0GTK4 34-113) (ligand)”, for which the values for the binding result in experiment [2], in experiment [3] and in experiment [4] were “no binding”, “binds” and “no binding”, respectively.

Consider “[G79A]FAM237A (from UniProt A0A1B0GTK4 34-113) (ligand)”, for which the binding entry in experiment [3] is “binds weakly”.

Consider “[H78A]FAM237A (from UniProt A0A1B0GTK4 34-113) (ligand)”, for which the binding result in experiment [3] was “binds weakly”.

In the case of “[L80A]FAM237A (from UniProt A0A1B0GTK4 34-113) (ligand)”, the binding result in experiment [3] is given as “binds weakly”.

As for “proCCK56-63 (procholecystokinin-derived peptide) (from UniProt P06307 56-63)”, the binding result in experiment [3] is on record as “no binding”.
